The supplement of paper PMC10849652
This is one part of the list.

By UniProt entry, the sequences of proteins in these tests, tags left out. Where a name states a change or a piece, a line headed by the entry shows the natural chain unless it says otherwise.
UniProt Q6PIU2: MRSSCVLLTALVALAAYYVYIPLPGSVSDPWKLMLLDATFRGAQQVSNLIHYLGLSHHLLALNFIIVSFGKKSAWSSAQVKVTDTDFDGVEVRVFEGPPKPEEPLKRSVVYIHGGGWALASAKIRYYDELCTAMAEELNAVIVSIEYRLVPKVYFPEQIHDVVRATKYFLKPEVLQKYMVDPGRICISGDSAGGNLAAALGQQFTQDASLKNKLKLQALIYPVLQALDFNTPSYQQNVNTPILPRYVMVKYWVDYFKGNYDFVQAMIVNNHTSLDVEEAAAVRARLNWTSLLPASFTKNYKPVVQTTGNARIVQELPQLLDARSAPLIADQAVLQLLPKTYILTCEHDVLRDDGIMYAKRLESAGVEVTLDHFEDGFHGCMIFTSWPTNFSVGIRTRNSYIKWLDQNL
UniProt Q9HCD5: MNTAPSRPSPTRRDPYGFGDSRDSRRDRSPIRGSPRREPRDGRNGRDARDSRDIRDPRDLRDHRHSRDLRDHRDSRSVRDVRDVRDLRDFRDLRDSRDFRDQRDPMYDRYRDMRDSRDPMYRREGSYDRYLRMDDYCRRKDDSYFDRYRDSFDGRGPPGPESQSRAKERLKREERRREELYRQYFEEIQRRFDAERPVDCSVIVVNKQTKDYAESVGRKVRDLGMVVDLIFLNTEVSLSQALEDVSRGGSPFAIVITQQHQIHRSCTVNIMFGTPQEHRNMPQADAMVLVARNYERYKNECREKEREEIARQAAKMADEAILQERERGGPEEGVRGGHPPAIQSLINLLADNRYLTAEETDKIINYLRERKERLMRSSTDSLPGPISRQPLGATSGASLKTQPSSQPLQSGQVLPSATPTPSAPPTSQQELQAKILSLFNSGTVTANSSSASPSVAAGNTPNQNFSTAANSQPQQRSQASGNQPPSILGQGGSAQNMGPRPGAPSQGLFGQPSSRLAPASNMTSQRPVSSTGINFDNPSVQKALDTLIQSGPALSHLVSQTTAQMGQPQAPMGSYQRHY
UniProt B0I1T2: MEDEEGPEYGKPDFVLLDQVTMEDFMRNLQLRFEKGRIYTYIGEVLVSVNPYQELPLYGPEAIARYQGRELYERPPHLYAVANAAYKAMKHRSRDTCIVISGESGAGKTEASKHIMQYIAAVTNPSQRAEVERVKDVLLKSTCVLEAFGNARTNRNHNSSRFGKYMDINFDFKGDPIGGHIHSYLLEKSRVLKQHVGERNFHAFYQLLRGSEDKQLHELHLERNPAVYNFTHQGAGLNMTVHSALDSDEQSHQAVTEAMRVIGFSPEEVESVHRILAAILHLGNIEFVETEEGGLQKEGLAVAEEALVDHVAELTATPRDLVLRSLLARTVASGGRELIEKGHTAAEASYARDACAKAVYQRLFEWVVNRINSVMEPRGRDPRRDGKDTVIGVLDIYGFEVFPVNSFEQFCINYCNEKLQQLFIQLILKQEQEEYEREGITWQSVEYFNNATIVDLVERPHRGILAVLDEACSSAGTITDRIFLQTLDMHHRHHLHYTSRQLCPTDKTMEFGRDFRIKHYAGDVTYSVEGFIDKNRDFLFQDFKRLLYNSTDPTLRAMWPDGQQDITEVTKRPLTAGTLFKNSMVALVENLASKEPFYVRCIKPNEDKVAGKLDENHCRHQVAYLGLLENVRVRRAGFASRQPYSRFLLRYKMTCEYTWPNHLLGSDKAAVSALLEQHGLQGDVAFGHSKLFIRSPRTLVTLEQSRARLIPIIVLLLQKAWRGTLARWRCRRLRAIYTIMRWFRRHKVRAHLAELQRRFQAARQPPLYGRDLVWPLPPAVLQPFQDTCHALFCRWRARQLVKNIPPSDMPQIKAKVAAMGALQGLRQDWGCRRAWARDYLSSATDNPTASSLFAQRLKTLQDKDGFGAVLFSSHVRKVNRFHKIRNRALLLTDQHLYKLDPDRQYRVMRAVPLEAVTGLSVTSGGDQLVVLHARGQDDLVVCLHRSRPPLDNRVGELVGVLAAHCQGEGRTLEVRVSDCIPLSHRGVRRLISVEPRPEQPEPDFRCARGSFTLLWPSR
UniProt Q96RE7: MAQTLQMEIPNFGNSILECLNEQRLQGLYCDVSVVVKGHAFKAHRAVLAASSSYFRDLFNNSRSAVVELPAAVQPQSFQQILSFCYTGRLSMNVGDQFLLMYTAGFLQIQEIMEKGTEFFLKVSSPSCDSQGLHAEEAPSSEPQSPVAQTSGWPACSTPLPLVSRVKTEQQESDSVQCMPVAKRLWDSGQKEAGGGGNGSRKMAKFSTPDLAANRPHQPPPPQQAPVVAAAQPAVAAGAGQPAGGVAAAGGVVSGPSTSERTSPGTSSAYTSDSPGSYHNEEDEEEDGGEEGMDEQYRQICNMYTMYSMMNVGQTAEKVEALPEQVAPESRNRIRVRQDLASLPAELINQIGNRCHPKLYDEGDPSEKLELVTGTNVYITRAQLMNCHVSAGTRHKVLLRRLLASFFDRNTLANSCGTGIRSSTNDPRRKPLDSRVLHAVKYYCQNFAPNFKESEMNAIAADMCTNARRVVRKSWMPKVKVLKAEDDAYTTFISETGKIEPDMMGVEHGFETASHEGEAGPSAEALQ
UniProt P55209: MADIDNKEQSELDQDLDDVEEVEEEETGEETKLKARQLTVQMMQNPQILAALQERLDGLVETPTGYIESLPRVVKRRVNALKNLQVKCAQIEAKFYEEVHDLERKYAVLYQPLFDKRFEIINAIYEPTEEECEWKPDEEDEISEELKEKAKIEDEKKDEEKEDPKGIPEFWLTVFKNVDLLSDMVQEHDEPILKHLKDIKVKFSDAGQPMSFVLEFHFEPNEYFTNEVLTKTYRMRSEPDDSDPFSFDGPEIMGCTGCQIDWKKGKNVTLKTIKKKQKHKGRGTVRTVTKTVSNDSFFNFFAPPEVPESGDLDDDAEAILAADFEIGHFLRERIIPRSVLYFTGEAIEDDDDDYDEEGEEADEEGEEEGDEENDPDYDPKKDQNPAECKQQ
UniProt O00159, whole entry, looked up: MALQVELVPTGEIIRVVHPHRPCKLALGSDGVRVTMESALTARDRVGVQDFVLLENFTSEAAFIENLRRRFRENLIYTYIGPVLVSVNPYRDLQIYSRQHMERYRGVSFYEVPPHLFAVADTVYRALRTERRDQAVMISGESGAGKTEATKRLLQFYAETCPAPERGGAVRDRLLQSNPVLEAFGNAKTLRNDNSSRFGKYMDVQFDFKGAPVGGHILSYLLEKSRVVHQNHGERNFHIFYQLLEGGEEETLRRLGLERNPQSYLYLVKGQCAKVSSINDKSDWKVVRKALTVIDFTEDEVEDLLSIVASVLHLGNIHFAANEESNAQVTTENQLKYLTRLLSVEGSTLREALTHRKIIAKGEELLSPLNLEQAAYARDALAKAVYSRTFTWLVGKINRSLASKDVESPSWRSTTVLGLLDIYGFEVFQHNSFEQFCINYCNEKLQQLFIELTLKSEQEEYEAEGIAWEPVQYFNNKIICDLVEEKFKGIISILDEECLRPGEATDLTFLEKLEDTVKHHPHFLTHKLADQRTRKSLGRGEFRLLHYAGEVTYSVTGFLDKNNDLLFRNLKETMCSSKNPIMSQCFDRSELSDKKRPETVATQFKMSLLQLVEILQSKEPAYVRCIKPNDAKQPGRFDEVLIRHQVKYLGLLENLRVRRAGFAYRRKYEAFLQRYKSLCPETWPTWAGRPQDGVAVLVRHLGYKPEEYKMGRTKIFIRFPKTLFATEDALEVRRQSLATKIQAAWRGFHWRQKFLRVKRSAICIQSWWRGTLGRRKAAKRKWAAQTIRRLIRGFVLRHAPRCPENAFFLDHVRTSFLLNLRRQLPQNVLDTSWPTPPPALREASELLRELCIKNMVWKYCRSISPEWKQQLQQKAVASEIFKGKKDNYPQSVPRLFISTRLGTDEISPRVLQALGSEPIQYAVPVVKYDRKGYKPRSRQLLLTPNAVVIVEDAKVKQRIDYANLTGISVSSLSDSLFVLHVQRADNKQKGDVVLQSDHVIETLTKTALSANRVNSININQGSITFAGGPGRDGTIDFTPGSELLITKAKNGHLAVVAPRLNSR
UniProt Q96DR8: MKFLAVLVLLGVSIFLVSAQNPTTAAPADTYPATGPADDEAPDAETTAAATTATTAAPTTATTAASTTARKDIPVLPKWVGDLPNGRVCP
UniProt O75376, whole entry, looked up: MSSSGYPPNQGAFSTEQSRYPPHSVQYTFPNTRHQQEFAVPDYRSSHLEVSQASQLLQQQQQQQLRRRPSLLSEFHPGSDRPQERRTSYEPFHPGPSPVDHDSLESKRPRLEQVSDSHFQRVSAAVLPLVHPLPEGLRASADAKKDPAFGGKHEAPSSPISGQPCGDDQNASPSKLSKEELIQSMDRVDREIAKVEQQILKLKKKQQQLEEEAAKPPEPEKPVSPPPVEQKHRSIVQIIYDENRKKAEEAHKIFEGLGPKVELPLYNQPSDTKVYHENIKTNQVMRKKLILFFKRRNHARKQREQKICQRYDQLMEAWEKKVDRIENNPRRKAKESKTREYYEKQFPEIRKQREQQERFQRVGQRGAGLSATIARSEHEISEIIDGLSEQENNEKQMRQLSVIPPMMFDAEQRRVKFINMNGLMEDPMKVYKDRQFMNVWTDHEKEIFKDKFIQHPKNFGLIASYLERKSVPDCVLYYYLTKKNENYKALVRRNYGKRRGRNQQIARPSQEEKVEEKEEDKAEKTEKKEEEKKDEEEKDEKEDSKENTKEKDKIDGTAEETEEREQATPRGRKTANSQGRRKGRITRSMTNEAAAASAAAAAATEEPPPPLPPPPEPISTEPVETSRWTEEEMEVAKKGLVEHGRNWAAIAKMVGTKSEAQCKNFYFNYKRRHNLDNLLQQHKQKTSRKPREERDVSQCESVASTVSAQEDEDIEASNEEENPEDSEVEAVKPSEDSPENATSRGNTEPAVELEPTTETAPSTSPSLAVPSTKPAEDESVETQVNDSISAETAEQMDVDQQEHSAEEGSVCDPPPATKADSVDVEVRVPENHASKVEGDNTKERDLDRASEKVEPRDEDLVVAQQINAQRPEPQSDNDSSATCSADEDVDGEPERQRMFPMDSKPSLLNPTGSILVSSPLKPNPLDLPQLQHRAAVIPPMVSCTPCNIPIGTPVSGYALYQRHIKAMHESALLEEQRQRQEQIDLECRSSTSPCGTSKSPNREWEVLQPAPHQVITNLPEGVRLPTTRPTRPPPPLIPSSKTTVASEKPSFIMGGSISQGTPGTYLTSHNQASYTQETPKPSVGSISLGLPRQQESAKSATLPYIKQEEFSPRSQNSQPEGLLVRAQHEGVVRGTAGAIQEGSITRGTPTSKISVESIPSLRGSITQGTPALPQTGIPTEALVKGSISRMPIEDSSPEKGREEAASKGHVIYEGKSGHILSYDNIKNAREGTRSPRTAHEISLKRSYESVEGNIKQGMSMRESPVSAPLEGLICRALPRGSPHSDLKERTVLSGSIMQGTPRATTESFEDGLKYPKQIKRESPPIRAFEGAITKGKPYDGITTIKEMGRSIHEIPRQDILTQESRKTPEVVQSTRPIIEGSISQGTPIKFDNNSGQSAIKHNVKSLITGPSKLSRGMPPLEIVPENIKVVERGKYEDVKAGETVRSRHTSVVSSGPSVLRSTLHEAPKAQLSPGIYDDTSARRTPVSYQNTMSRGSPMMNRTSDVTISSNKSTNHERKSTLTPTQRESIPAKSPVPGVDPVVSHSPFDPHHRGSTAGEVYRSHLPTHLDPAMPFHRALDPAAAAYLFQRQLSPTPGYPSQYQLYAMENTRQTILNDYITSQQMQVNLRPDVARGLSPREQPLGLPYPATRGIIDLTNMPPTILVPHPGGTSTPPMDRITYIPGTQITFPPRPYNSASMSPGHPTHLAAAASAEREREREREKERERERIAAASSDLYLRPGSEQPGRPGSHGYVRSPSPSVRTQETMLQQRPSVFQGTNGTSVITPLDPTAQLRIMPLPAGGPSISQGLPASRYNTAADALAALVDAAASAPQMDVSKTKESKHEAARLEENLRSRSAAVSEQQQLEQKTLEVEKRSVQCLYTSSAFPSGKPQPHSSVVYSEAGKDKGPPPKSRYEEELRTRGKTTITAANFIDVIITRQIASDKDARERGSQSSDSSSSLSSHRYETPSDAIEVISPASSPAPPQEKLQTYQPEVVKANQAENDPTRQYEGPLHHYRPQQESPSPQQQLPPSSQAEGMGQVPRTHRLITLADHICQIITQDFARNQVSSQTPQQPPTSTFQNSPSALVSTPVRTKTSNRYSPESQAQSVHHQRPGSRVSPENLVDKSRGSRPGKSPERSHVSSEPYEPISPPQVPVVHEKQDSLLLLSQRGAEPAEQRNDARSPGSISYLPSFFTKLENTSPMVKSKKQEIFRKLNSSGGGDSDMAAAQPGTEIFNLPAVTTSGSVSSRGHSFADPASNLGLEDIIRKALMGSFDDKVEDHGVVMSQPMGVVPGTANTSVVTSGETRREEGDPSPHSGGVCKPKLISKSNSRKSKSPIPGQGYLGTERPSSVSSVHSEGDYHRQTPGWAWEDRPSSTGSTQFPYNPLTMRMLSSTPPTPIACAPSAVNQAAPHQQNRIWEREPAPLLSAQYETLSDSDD

What was measured:
Experiment in all cases: log2 fold change, soluble protein after heating vs DMSO (PISA); higher = thermal stabilisation; K562 lysate, 10 uM; active = over 0.2 and 3.5 SD of the protein, either way, in both replicates (recomputed)
lapatinib = compound: CS(=O)(=O)CCNCc1ccc(-c2ccc3ncnc(Nc4ccc(OCc5cccc(F)c5)c(Cl)c4)c3c2)o1 [lapatinib]
Outline: (§1)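 K562 pellets were dounce-homogenised in PBS pH 7.4 containing 1 mM MgCl2, and the crude extract, at 1 mg/mL protein, was exposed to 10 μM compound for 30 min. Aliquots were heated for 3 min across 48°C-58°C, pooled, brought to 0.5% NP-40 at 4°C and spun at 21,000xg for 90 min, with the supernatant taken as soluble protein. TMTpro 16plex LC-MS/MS with equalised channel sums quantified that protein. Values are log-two fold changes in thermal stability relative to solvent controls, taken from duplicates.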

pictilisib = compound: CS(=O)(=O)N1CCN(Cc2cc3nc(-c4cccc5[nH]ncc45)nc(N4CCOCC4)c3s2)CC1 [pictilisib]
Outline: as §1

crizotinib = compound: C[C@@H](Oc1cc(-c2cnn(C3CCNCC3)c2)cnc1N)c1c(Cl)ccc(F)c1Cl [crizotinib]
Outline: as §1

[1] = compound: C[C@H](C1=CC=C(C=C1)C(=O)NC2=C3C=CNC3=NC=C2)N
Outline: as §1

duvelisib = compound: C[C@H](Nc1ncnc2nc[nH]c12)c1cc2cccc(Cl)c2c(=O)n1-c1ccccc1 [duvelisib]
Outline: as §1

gandotinib = compound: Cc1cc(Nc2cc(CN3CCOCC3)c3nc(C)c(Cc4ccc(Cl)cc4F)n3n2)n[nH]1 [gandotinib]
Outline: as §1

tozasertib = compound: Cc1cc(Nc2cc(N3CCN(C)CC3)nc(Sc3ccc(NC(=O)C4CC4)cc3)n2)n[nH]1 [tozasertib]
Outline: as §1

doramapimod = compound: Cc1ccc(-n2nc(C(C)(C)C)cc2NC(=O)Nc2ccc(OCCN3CCOCC3)c3ccccc23)cc1 [doramapimod]
Outline: as §1

bafetinib = compound: Cc1ccc(NC(=O)c2ccc(CN3CC[C@H](N(C)C)C3)c(C(F)(F)F)c2)cc1Nc1nccc(-c2cncnc2)n1 [bafetinib]
Outline: as §1

[2] = compound: Cc1cccc(CC(=O)N2CCc3c2ccc(-c2cn(C)c4ncnc(N)c24)c3F)n1
Outline: as §1

nilotinib = compound: Cc1cn(-c2cc(NC(=O)c3ccc(C)c(Nc4nccc(-c5cccnc5)n4)c3)cc(C(F)(F)F)c2)cn1 [nilotinib]
Outline: as §1

[3] = compound: Cc1nc(Nc2n[nH]c3c2CN(C(=O)N[C@H](CN(C)C)c2ccccc2)C3(C)C)c2sccc2n1
Outline: as §1

dasatinib = compound: Cc1nc(Nc2ncc(C(=O)Nc3c(C)cccc3Cl)s2)cc(N2CCN(CCO)CC2)n1 [dasatinib]
Outline: as §1

[4] = compound: Cc1ncc(-c2ccnc(Nc3ccc(S(C)(=O)=O)cc3)n2)n1C(C)C
Outline: as §1

[5] = compound: Cn1cc(-c2ccc3c(c2)CCN3C(=O)Cc2cccc(C(F)(F)F)c2)c2c(N)ncnc21
Outline: as §1

quisinostat = compound: Cn1cc(CNCC2CCN(c3ncc(C(=O)NO)cn3)CC2)c2ccccc21 [quisinostat]
Outline: as §1

tipifarnib = compound: Cn1cncc1[C@@](N)(c1ccc(Cl)cc1)c1ccc2c(c1)c(-c1cccc(Cl)c1)cc(=O)n2C [tipifarnib]
Outline: as §1

[6] = compound: NC(=O)Nc1cc(-c2cccc(F)c2)sc1C(=O)N[C@H]1CCCNC1
Outline: as §1

[7] = compound: NC(=O)c1cnc(N[C@@H]2CCCC[C@@H]2N)nc1Nc1cccc(-n2nccn2)c1
Outline: as §1

[8] = compound: NC1(c2ccc(-c3nc4ccn5c(=O)[nH]nc5c4cc3-c3ccccc3)cc2)CCC1
Outline: as §1

Measured: log2 fold change

NADK2 (UniProt Q4G0N4)
inactive: lapatinib 0.02 | pictilisib -0.028 | crizotinib -0.005 | [1] -0.04 | duvelisib 0.03 | gandotinib 0.004 | tozasertib 0.012 | doramapimod -0.002 | bafetinib 0.01 | [2] 0.017 | nilotinib 0.022 | [3] 0.002 | dasatinib -0.016 | [4] -0.008 | [5] -0.022 | quisinostat 0.017 | tipifarnib 0.008 | [6] -0.032 | [7] 0.029 | [8] 0.03

NCEH1 (UniProt Q6PIU2)
inactive: lapatinib -0.011 | pictilisib 0.003 | crizotinib 0 | [1] 0.028 | duvelisib 0.011 | gandotinib 0.028 | tozasertib 0.005 | doramapimod -0.045 | bafetinib -0.053 | [2] -0.033 | nilotinib 0.035 | [3] 0.017 | dasatinib 0.04 | [4] -0.034 | [5] 0.046 | quisinostat 0.024 | tipifarnib 0 | [6] -0.003 | [7] 0.009 | [8] 0.004

NCOA5 (UniProt Q9HCD5)
inactive: lapatinib 0.031 | pictilisib -0.099 | crizotinib -0.007 | [1] 0.013 | duvelisib 0.009 | gandotinib 0.07 | tozasertib 0.024 | doramapimod 0.061 | bafetinib -0.075 | [2] -0.006 | nilotinib -0.068 | [3] -0.146 | dasatinib -0.054 | [4] 0.039 | [5] 0 | quisinostat -0.055 | tipifarnib -0.093 | [6] 0.016 | [7] -0.022 | [8] -0.154

NAPB (UniProt Q9H115)
inactive: lapatinib 0.03 | pictilisib -0.002 | crizotinib 0.046 | [1] 0.083 | duvelisib 0.019 | gandotinib -0.057 | tozasertib -0.01 | doramapimod -0.109 | bafetinib 0.09 | [2] -0.155 | nilotinib 0.005 | [3] 0.073 | dasatinib 0.038 | [4] -0.018 | [5] 0.033 | quisinostat 0.017 | tipifarnib -0.06 | [6] 0.024 | [7] -0.032 | [8] 0.005

MYO1G (UniProt B0I1T2)
inactive: lapatinib -0.028 | pictilisib 0.206 | crizotinib 0.073 | [1] 0.42 | duvelisib 0.125 | gandotinib -0.212 | tozasertib 0 | doramapimod 0.066 | bafetinib 0.003 | [2] -0.253 | nilotinib 0.076 | [3] -0.35 | dasatinib 0.167 | [4] 0.065 | [5] -0.061 | quisinostat 0.096 | tipifarnib 0.063 | [6] -0.027 | [7] -0.069 | [8] 0.156

NCKIPSD (UniProt Q9NZQ3)
inactive: lapatinib -0.049 | pictilisib -0.033 | crizotinib 0.031 | [1] 0.013 | duvelisib 0.058 | gandotinib -0.174 | tozasertib 0.041 | doramapimod 0.037 | bafetinib -0.11 | [2] 0.059 | nilotinib 0.015 | [3] 0.017 | dasatinib -0.02 | [4] -0.204 | [5] 0.097 | quisinostat 0.093 | tipifarnib -0.042 | [6] 0.039 | [7] 0.03 | [8] 0.078

NACC1 (UniProt Q96RE7)
inactive: lapatinib -0.032 | pictilisib 0.034 | crizotinib 0.01 | [1] -0.066 | duvelisib -0.002 | gandotinib 0.006 | tozasertib -0.015 | doramapimod -0.011 | bafetinib -0.078 | [2] 0.044 | nilotinib -0.013 | [3] 0.031 | dasatinib -0.006 | [4] -0.007 | [5] 0.022 | quisinostat -0.024 | tipifarnib -0.008 | [6] -0.04 | [7] 0.022 | [8] 0.015

NCK1 (UniProt P16333)
inactive: lapatinib 0.025 | pictilisib 0 | crizotinib -0.024 | [1] 0.065 | duvelisib 0.014 | gandotinib -0.051 | tozasertib 0.005 | doramapimod 0.03 | bafetinib -0.033 | [2] -0.024 | nilotinib -0.071 | [3] 0.015 | dasatinib -0.005 | [4] -0.037 | [5] -0.015 | quisinostat -0.053 | tipifarnib 0.018 | [6] 0.029 | [7] 0.001 | [8] 0.008

NAP1L1 (UniProt P55209)
inactive: lapatinib 0.099 | pictilisib 0.087 | crizotinib -0.008 | [1] 0.159 | duvelisib 0.001 | gandotinib -0.041 | tozasertib -0.012 | doramapimod -0.001 | bafetinib 0.015 | [2] -0.006 | nilotinib 0.036 | [3] -0.017 | dasatinib 0.028 | [4] -0.062 | [5] 0.004 | quisinostat 0.008 | tipifarnib -0.024 | [6] -0.001 | [7] 0.035 | [8] 0.007

MYO1C (UniProt O00159)
inactive: lapatinib -0.078 | pictilisib 0.007 | crizotinib -0.09 | [1] 0.027 | duvelisib 0.075 | gandotinib -0.036 | tozasertib 0.014 | doramapimod 0.065 | bafetinib 0.068 | [2] -0.023 | nilotinib 0.019 | [3] -0.013 | dasatinib 0.112 | [4] 0.005 | [5] -0.038 | quisinostat -0.052 | tipifarnib 0.019 | [6] -0.082 | [7] 0 | [8] -0.087

Retrieved one by one from the entries so far (two):
NAPB (UniProt Q9H115)
inactive: lapatinib 0.03 | pictilisib -0.002 | crizotinib 0.046 | [1] 0.083 | duvelisib 0.019 | gandotinib -0.057 | tozasertib -0.01 | doramapimod -0.109 | bafetinib 0.09 | [2] -0.155 | nilotinib 0.005 | [3] 0.073 | dasatinib 0.038 | [4] -0.018 | [5] 0.033 | quisinostat 0.017 | tipifarnib -0.06 | [6] 0.024 | [7] -0.032 | [8] 0.005

NCKIPSD (UniProt Q9NZQ3)
inactive: lapatinib -0.049 | pictilisib -0.033 | crizotinib 0.031 | [1] 0.013 | duvelisib 0.058 | gandotinib -0.174 | tozasertib 0.041 | doramapimod 0.037 | bafetinib -0.11 | [2] 0.059 | nilotinib 0.015 | [3] 0.017 | dasatinib -0.02 | [4] -0.204 | [5] 0.097 | quisinostat 0.093 | tipifarnib -0.042 | [6] 0.039 | [7] 0.03 | [8] 0.078

Continued.

MYO18A (UniProt Q92614)
inactive: lapatinib -0.02 | pictilisib -0.015 | crizotinib -0.005 | [1] -0.015 | duvelisib -0.014 | gandotinib -0.006 | tozasertib -0.004 | doramapimod 0.041 | bafetinib 0 | [2] 0.027 | nilotinib 0.016 | [3] -0.011 | dasatinib -0.004 | [4] 0.009 | [5] 0.015 | quisinostat -0.031 | tipifarnib 0.011 | [6] -0.016 | [7] 0.002 | [8] -0.01

MYBBP1A isoform 2 (UniProt Q9BQG0)
inactive: lapatinib -0.027 | pictilisib -0.057 | crizotinib -0.077 | [1] 0.031 | duvelisib -0.02 | gandotinib -0.102 | tozasertib -0.01 | doramapimod -0.014 | bafetinib -0.068 | [2] -0.01 | nilotinib -0.011 | [3] -0.01 | dasatinib -0.054 | [4] 0.006 | [5] 0.005 | quisinostat -0.048 | tipifarnib 0.013 | [6] 0.024 | [7] 0.003 | [8] -0.01

NAMPT (UniProt P43490)
inactive: lapatinib -0.029 | pictilisib 0.022 | crizotinib 0.017 | [1] -0.013 | duvelisib -0.001 | gandotinib -0.011 | tozasertib -0.002 | doramapimod -0.007 | bafetinib 0.053 | [2] -0.052 | nilotinib -0.026 | [3] 0.028 | dasatinib -0.019 | [4] -0.028 | [5] -0.018 | quisinostat 0.013 | tipifarnib 0.066 | [6] -0.024 | [7] -0.015 | [8] 0.075

NBAS (UniProt A2RRP1)
inactive: lapatinib 0 | pictilisib -0.027 | crizotinib -0.003 | [1] -0.037 | duvelisib -0.032 | gandotinib -0.096 | tozasertib 0.082 | doramapimod 0.003 | bafetinib -0.069 | [2] 0.034 | nilotinib 0.002 | [3] -0.07 | dasatinib -0.016 | [4] -0.021 | [5] 0.087 | quisinostat 0.029 | tipifarnib -0.054 | [6] -0.024 | [7] -0.009 | [8] 0.048

MUCL1 (UniProt Q96DR8)
inactive: lapatinib 0.389 | pictilisib 0.412 | crizotinib 0.394 | [1] 0.457 | duvelisib -0.836 | gandotinib -0.381 | tozasertib 0.739 | doramapimod 0.199 | bafetinib -0.11 | [2] -0.351 | nilotinib 0.652 | [3] 0.161 | dasatinib -0.332 | [4] 0.274 | [5] 1.15 | quisinostat -0.156 | tipifarnib -0.29 | [6] -0.239 | [7] 0.095 | [8] 0.04

NCOR1 (UniProt O75376)
inactive: lapatinib 0.046 | pictilisib -0.028 | crizotinib 0.018 | [1] 0.031 | duvelisib -0.022 | gandotinib -0.03 | tozasertib -0.009 | doramapimod -0.034 | bafetinib -0.028 | [2] 0.006 | nilotinib 0.006 | [3] 0.012 | dasatinib -0.031 | [4] -0.019 | [5] 0.008 | quisinostat -0.064 | tipifarnib -0.046 | [6] 0.021 | [7] 0.029 | [8] 0.003
